Measured values as given in patent US20100331311A1 (priority 2005, published 2010).
“And” between values parts separate entries of the source, which are not always exact repeats. Identical values can stand only once.

What was measured:
[1] = system: retinal ganglion cells (RGCs); design: species or system Brown Norway rats; details: rat, in vivo
[2] = system: glaucomatous and normal (contralateral) eyes; design: species or system Brown Norway rats; details: rat, in vivo
Procedure: IOP from glaucomatous and normal (contralateral) eyes was measured in awake animals using a calibrated tonometer (TonoPen XL, Medtronic Solan, Jacksonville, Fla.). Ten to fifteen consecutive readings per eye were taken and averaged to obtain an accurate daily IOP measurement. IOP was measured daily for two weeks after ocular hypertension surgery, and then every other day for the entire duration of the experiment. The mean IOP (mm Hg±S.E.M.) per eye was the average of all IOP readings since the onset of pressure elevation. The maximum IOP measured in each individual eye, glaucomatous or normal contralateral eye, was defined as the peak IOP and this value was used to estimate the mean peak IOP for each group. The delta positive integral IOP was calculated as the area under the IOP curve in the glaucomatous eye minus that of the fellow normal eye from ocular hypertension surgery to euthanasia. Integral IOP represents the total, cumulative IOP exposure throughout the entire experiment.
For this purpose, Applicant measured intraocular pressure every other day for entire duration of daily treatment with galantamine up to 35 days after ocular hypertension (OHT) surgery.

SMILES: COc1cc2c(cc1OC)C(=O)C(CC1CCN(Cc3ccccc3)CC1)C2 (stereo not drawn) [Donepezil, donepezil]
- neuroprotection of RGCs in experimental glaucoma, galantamine vs donepezil (in words) [1]: confer neuroprotection on retinal ganglion cells in glaucoma
- effect on intraocular pressure (in words) [2]: significantly reduced the IOP in glaucomatous eyes
- Integral IOP ([2]; 3.5 mg/kg): 246 mm Hg and 246 ± 7 mm Hg
- Mean IOP Control ([2]; 3.5 mg/kg): 22.07 ± 0.6 mm Hg
- Mean IOP Difference ([2]; 3.5 mg/kg): 9.7 mm Hg and 9.7 ± 0.8 mm Hg
- Mean IOP Glaucoma ([2]; 3.5 mg/kg): 31.7 ± 1.5 mm Hg
